This note sets out measurements from PubChem BioAssay AID248 (DTP/NCI, 2004).

The test system of the assay is L1210 leukemia ip in BDF1 mice, survival T/C. Put plainly: NCI In Vivo Anticancer Drug Screen. Data for tumor model L1210 Leukemia (intraperitoneal) in B6D2F1 (BDF1) mice. The conditions noted are these: T/C endpoint: mean survival time, higher T/C = longer survival.
Setting [1] is: dose: 25.0 mg/kg/injection, schedule: Q04DX003 (ip), vehicle: saline.
The mark [2] stands for this setting: dose: 200.0 mg/kg/injection, schedule: Q01DX001 (ip), vehicle: carboxymethylcellulose (CMC).
[3] abbreviates: dose: 400.0 mg/kg/injection, schedule: Q01DX001 (ip), vehicle: carboxymethylcellulose (CMC).
Where [4] appears, read: dose: 100.0 mg/kg/injection, schedule: Q01DX009 (ip), vehicle: saline with Tween-80.
[5] abbreviates: dose: 200.0 mg/kg/injection, schedule: Q04DX003 (ip), vehicle: saline with Tween-80.
[6] abbreviates: dose: 400.0 mg/kg/injection, schedule: Q04DX003 (ip), vehicle: saline with Tween-80.
Setting [7] is: dose: 400.0 mg/kg/injection, schedule: Q04DX003 (ip), vehicle: saline.
[8] abbreviates: dose: 400.0 mg/kg/injection, schedule: Q01DX009 (ip), vehicle: saline with Tween-80.

The list shows only some results of the screen, not a fair sample: it is rich in T/C values a quarter to a half above the control, in often repeated tests (any T/C) and in doses without a T/C. Other doses and runs of a compound stand elsewhere. T/C is the treated group as % of the vehicle group. Some entries give survivors of the animals treated and no T/C: the source holds a T/C of zero for them, seemingly a mark for toxic or unscored doses. Some doses without a T/C left all or most animals alive at the check, yet need not have been tolerated: the source hardly ever lists a survival T/C far under the control, and the zero likely stands for such cases as well. Counts of survivors are from the toxicity check (mostly the fifth day) where no day follows; animals may have died later. Schedule codes are those of the source, taken here to give the interval after Q, in days (D) or hours (H), and the number of doses after X. Some entries were tested several times; the values are given in rising order. Where survival is the endpoint, the PubChem record calls one and a half times the control and up active, and a quarter to a half above the control has no call in these data; cut-offs in other NCI protocols can differ. Some T/C values carry the count of animals alive at the toxicity check (mostly the fifth day); where none is given, no animal had died by that day.

Take `Nc1nc(N)c2cc(NCc3ccccc3Cl)ccc2n1`: the survivor count (dose: 18.0 mg/kg/injection, schedule: Q01DX009 (ip), vehicle: saline with Tween-80) is reported as 3 of 6; the survivor count under setting [1] is reported as 5 of 6; the survivor count (dose: 28.0 mg/kg/injection, schedule: Q01DX009 (ip), vehicle: saline with Tween-80) is 1 of 6; the survivor count (dose: 40.0 mg/kg/injection, schedule: Q01DX009 (ip), vehicle: saline with Tween-80) is given as 0 of 6; the survivor count (dose: 50.0 mg/kg/injection, schedule: Q01DX001 (ip), vehicle: acetone) is listed as 0 of 6; the survivor count (dose: 100.0 mg/kg/injection, schedule: Q01DX001 (ip), vehicle: acetone) is 0 of 6.

As to `O=c1cc[n]2c(n1)[O][Hg]2`, the survivor count (dose: 20.0 mg/kg/injection, schedule: Q01DX001 (ip), vehicle: carboxymethylcellulose (CMC)) is listed as 0 of 4; the survivor count (dose: 40.0 mg/kg/injection, schedule: Q01DX001 (ip), vehicle: carboxymethylcellulose (CMC)) is listed as 0 of 4; the survivor count (dose: 50.0 mg/kg/injection, schedule: Q01DX001 (ip), vehicle: carboxymethylcellulose (CMC)) is on record as 0 of 4; the survivor count (dose: 80.0 mg/kg/injection, schedule: Q01DX001 (ip), vehicle: carboxymethylcellulose (CMC)) is 0 of 4; the survivor count (dose: 100.0 mg/kg/injection, schedule: Q01DX001 (ip), vehicle: carboxymethylcellulose (CMC)) is recorded as 0 of 4; the survivor count under setting [2] is listed as 0 of 4. Under setting [3], the survivor count was 1 of 4.

Consider `c1ccc2c(c1)Cc1ccccc1CN(CCNC1=NCCN1)C2`, for which the survivor count is recorded as 3 of 6 under setting [4], 0 of 6 under setting [5] and 0 of 6 under setting [6].

Turning to `ClCCCN1CCCCC1CCl` (centres undefined), the T/C by setting is: (dose: 6.25 mg/kg/injection, schedule: Q01DX009 (ip), vehicle: saline) 136 % of control; (dose: 12.5 mg/kg/injection, schedule: Q01DX009 (ip), vehicle: saline) 136 and 148 % of control; (dose: 12.5 mg/kg/injection, schedule: Q04DX003 (ip), vehicle: saline) 125 % of control; under setting [1], 147 % of control. Moreover, the survivor count by setting is: (dose: 25.0 mg/kg/injection, schedule: Q01DX009 (ip), vehicle: saline) 5 of 6 and 6 of 6; (dose: 50.0 mg/kg/injection, schedule: Q01DX009 (ip), vehicle: saline) 0 of 6; (dose: 50.0 mg/kg/injection, schedule: Q04DX003 (ip), vehicle: saline) 4 of 6 and 6 of 6; (dose: 100.0 mg/kg/injection, schedule: Q04DX003 (ip), vehicle: saline) 3 of 6; (dose: 200.0 mg/kg/injection, schedule: Q04DX003 (ip), vehicle: saline) 0 of 6; under setting [7], 0 of 6.

For the molecule `COc1ccc(C[n+]2cc([O-])on2)cc1`, the survivor count is listed as 6 of 6 (dose: 170.0 mg/kg/injection, schedule: Q01DX009 (ip), vehicle: Klucel (hydroxypropylcellulose) (HPC)); 0 of 6 (dose: 170.0 mg/kg/injection, schedule: Q04DX003 (ip), vehicle: other); 2 of 6 (dose: 200.0 mg/kg/injection, schedule: Q01DX001 (ip), vehicle: Klucel (hydroxypropylcellulose) (HPC)); 0 of 6 (dose: 260.0 mg/kg/injection, schedule: Q01DX009 (ip), vehicle: Klucel (hydroxypropylcellulose) (HPC)).

Turning to `CCOC1OCN(C)CC1(C)C` (centres undefined), for the setting “dose: 200.0 mg/kg/injection, schedule: Q01DX009 (ip), vehicle: saline”, the T/C was 126 % of control. Besides, the survivor count is 2 of 6 (dose: 300.0 mg/kg/injection, schedule: Q01DX009 (ip), vehicle: saline sonified) and 1 of 6 under setting [7].

`C[N+](C)(C)C12CCCCC1S(=O)(=O)C2` (centres undefined): the survivor count (dose: 150.0 mg/kg/injection, schedule: Q01DX001 (ip), vehicle: saline) was 1 of 6 and the survivor count (dose: 300.0 mg/kg/injection, schedule: Q01DX001 (ip), vehicle: saline) was 0 of 6.

As to `O=C(O)c1ccccc1CN1CCCC(C(=O)O)C1` (centres undefined), the survivor count by setting is: under setting [4], 3 of 6; (dose: 200.0 mg/kg/injection, schedule: Q01DX009 (ip), vehicle: saline with Tween-80) 0 of 6; under setting [8], 0 of 6.

Regarding `CCC(C)C(CN)(CCN(C)C)Cc1cccc2ccccc12` (centres undefined), the survivor count is 3 of 6 (dose: 100.0 mg/kg/injection, schedule: Q04DX003 (ip), vehicle: saline with Tween-80); 0 of 6 under setting [5]; 0 of 6 under setting [6].

On to `CC[N+]1=NC2CCCC(C2)C1` (centres undefined), for which the survivor count under setting [7] was 0 of 6.

As to `CCOC(C)C1C2CCCCC21` (centres undefined), under setting [8], the survivor count is 0 of 6.

For `COc1cc(C=Nc2ccc(Cl)cc2)ccc1N(CCCl)CCCl`, the survivor count is listed as 5 of 6 (dose: 60.0 mg/kg/injection, schedule: Q01DX015 (ip), vehicle: carboxymethylcellulose (CMC)); 0 of 6 (dose: 100.0 mg/kg/injection, schedule: Q01DX015 (ip), vehicle: carboxymethylcellulose (CMC)); 0 of 4 (dose: 300.0 mg/kg/injection, schedule: Q01DX001 (ip), vehicle: carboxymethylcellulose (CMC)); 1 of 4 under setting [3]. The T/C was 125 % of control [3 of 4 alive] (dose: 89.0 mg/kg/injection, schedule: Q01DX001 (ip), vehicle: carboxymethylcellulose (CMC)) and 147 % of control under setting [2].

Take `Cc1ccc(C(=O)[O][Hg][CH2]C2COC([CH2][Hg][O]C(=O)c3ccc(C)cc3)CO2)cc1` (centres undefined): the survivor count is recorded as 6 of 6 (dose: 25.0 mg/kg/injection, schedule: Q01DX009 (ip), vehicle: Klucel (hydroxypropylcellulose) (HPC)); 5 of 6 (dose: 50.0 mg/kg/injection, schedule: Q01DX009 (ip), vehicle: Klucel (hydroxypropylcellulose) (HPC)); 6 of 6 (dose: 100.0 mg/kg/injection, schedule: Q01DX009 (ip), vehicle: Klucel (hydroxypropylcellulose) (HPC)); 5 of 6 (dose: 100.0 mg/kg/injection, schedule: Q04DX003 (ip), vehicle: Klucel (hydroxypropylcellulose) (HPC)); 1 of 6 (dose: 150.0 mg/kg/injection, schedule: Q04DX003 (ip), vehicle: Klucel (hydroxypropylcellulose) (HPC)); 0 of 6 (dose: 200.0 mg/kg/injection, schedule: Q04DX003 (ip), vehicle: Klucel (hydroxypropylcellulose) (HPC)). Further, the survivor count runs as follows: (dose: 225.0 mg/kg/injection, schedule: Q04DX003 (ip), vehicle: Klucel (hydroxypropylcellulose) (HPC)) 0 of 6; (dose: 335.0 mg/kg/injection, schedule: Q04DX003 (ip), vehicle: Klucel (hydroxypropylcellulose) (HPC)) 0 of 6; (dose: 400.0 mg/kg/injection, schedule: Q04DX003 (ip), vehicle: Klucel (hydroxypropylcellulose) (HPC)) 0 of 6.

Regarding `O=N[O-].O=N[O-].O=N[O-].O=N[O-].O=N[O-].O=N[O-].[Co+3].[Co].[NH2-].[NH2-].[NH2-].[NH2-].[NH2-].[NH2-]`, the survivor count (dose: 100.0 mg/kg/injection, schedule: Q04DX002 (ip), vehicle: saline with Tween-80) is listed as 0 of 3.
